Measured values published in PubChem BioAssay AID248 (DTP/NCI, 2004).
The list is a part of this screen's results and no random one: it gathers tests that were run many times, whatever their T/C, doses with no T/C, and many T/C values between a quarter and a half above the control. Further doses and runs are listed elsewhere. T/C: endpoint of the treated group in % of that of the vehicle group. Some entries give survivors of the animals treated and no T/C: the source files T/C as zero there, which appears to mark a toxic dose or a test without result, not a measured value. Some doses without a T/C left all or most animals alive at the check, yet need not have been tolerated: survival well below the control is almost never listed, so the zero probably covers shortened survival too. Counts of survivors are from the toxicity check (mostly the fifth day) where no day follows; animals may have died later. Schedules are NCI's codes, taken here to give the interval after Q, in days (D) or hours (H), and the number of doses after X. Some schedules carry Z or #; the key to these is not given. Some entries hold several experiments; the results are listed from low to high. For survival time, this PubChem deposit counts one and a half times the control or more as active, and values a quarter to a half above the control carry no call in these data; other NCI protocols may use other cut-offs. Additions like (4×) count equal records among those shown.

System: L1210 leukemia ip in BDF1 mice, survival T/C
Experiment: NCI In Vivo Anticancer Drug Screen. Data for tumor model L1210 Leukemia (intraperitoneal) in B6D2F1 (BDF1) mice
Conditions: T/C endpoint: mean survival time, higher T/C = longer survival
[1] = dose: 400.0 mg/kg/injection, schedule: Q01DX001 (ip), vehicle: saline
[2] = dose: 3.0 mg/kg/injection, schedule: Q01DX Z (ip), vehicle: saline
[3] = dose: 5.0 mg/kg/injection, schedule: Q01DX Z (ip), vehicle: saline
[4] = dose: 400.0 mg/kg/injection, schedule: Q01DX009 (ip), vehicle: Klucel (hydroxypropylcellulose) (HPC)
[5] = dose: 25.0 mg/kg/injection, schedule: Q01DX009 (ip), vehicle: saline
[6] = dose: 50.0 mg/kg/injection, schedule: Q01DX009 (ip), vehicle: saline
[7] = dose: 100.0 mg/kg/injection, schedule: Q01DX009 (ip), vehicle: saline
[8] = dose: 100.0 mg/kg/injection, schedule: Q04DX003 (ip), vehicle: saline
[9] = dose: 200.0 mg/kg/injection, schedule: Q01DX009 (ip), vehicle: saline
[10] = dose: 200.0 mg/kg/injection, schedule: Q04DX003 (ip), vehicle: saline
[11] = dose: 400.0 mg/kg/injection, schedule: Q04DX003 (ip), vehicle: saline
[12] = dose: 25.0 mg/kg/injection, schedule: Q01DX009 (ip), vehicle: saline with Tween-80
[13] = dose: 100.0 mg/kg/injection, schedule: Q01DX009 (ip), vehicle: saline with Tween-80
[14] = dose: 400.0 mg/kg/injection, schedule: Q04DX002 (ip), vehicle: saline with Tween-80
[15] = dose: 400.0 mg/kg/injection, schedule: Q04DX003 (ip), vehicle: Klucel (hydroxypropylcellulose) (HPC)
[16] = dose: 200.0 mg/kg/injection, schedule: Q01DX009 (ip), vehicle: saline with Tween-80

## CC1(C)N=C(N)N=C(N)N1c1cccc(OCCOc2cccc(NC(=O)CBr)c2)c1
dose: 40.0 mg/kg/injection, schedule: Q01DX009 (ip), vehicle: other
  survivor count: 0 of 6
dose: 80.0 mg/kg/injection, schedule: Q01DX001 (ip), vehicle: saline
  survivor count: 1 of 6
dose: 80.0 mg/kg/injection, schedule: Q01DX009 (ip), vehicle: other
  survivor count: 0 of 6
dose: 100.0 mg/kg/injection, schedule: Q01DX001 (ip), vehicle: saline
  survivor count: 1 of 6
dose: 200.0 mg/kg/injection, schedule: Q01DX001 (ip), vehicle: saline
  survivor count: 0 of 6
[1]
  survivor count: 0 of 6

## O=P(N1CCCC1)(N1CC1)N1CC1
[2]
  T/C: 147 % of control
  survivor count: 6 of 6
[3]
  T/C: 140 % of control
  survivor count: 6 of 6
dose: 11.5 mg/kg/injection, schedule: Q01DX Z (ip), vehicle: saline
  T/C: 134 % of control
dose: 17.0 mg/kg/injection, schedule: Q01DX Z (ip), vehicle: saline
  survivor count: 6 of 6

## COc1ccc(CC(N)C(=O)O)cc1 (configuration not stated)
[4]
  survivor count: 3 of 6

## FC(F)(F)c1ccc2c(c1)N(CCCN1CCN(CCC3OCCCO3)CC1)c1ccccc1S2
[5]
  survivor count: 4 of 6
dose: 25.0 mg/kg/injection, schedule: Q04DX003 (ip), vehicle: saline
  survivor count: 2 of 4
[6]
  survivor count: 1 of 6
dose: 50.0 mg/kg/injection, schedule: Q04DX003 (ip), vehicle: saline
  survivor count: 0 of 4
[7]
  survivor count: 0 of 6
[8]
  survivor count: 0 of 4
[9]
  survivor count: 0 of 6
[10]
  survivor count: 0 of 4
dose: 400.0 mg/kg/injection, schedule: Q01DX009 (ip), vehicle: saline
  survivor count: 0 of 6
[11]
  survivor count: 0 of 4

## S=C=NCCCCCCCCCCCCN=C=S
[12]
  survivor count: 1 of 3 and 4 of 6
dose: 50.0 mg/kg/injection, schedule: Q01DX009 (ip), vehicle: saline with Tween-80
  survivor count: 0 of 3
[13]
  survivor count: 1 of 3
dose: 100.0 mg/kg/injection, schedule: Q04DX002 (ip), vehicle: saline with Tween-80
  survivor count: 1 of 3
dose: 200.0 mg/kg/injection, schedule: Q04DX002 (ip), vehicle: saline with Tween-80
  survivor count: 1 of 3
[14]
  survivor count: 1 of 3

## Cc1cc(N(CCOS(C)(=O)=O)CCOS(C)(=O)=O)ccc1C=Nc1ccc(-c2csc(COc3ccccc3)n2)cc1
dose: 66.0 mg/kg/injection, schedule: Q04DX003 (ip), vehicle: Klucel (hydroxypropylcellulose) (HPC)
  T/C: 135 % of control
dose: 100.0 mg/kg/injection, schedule: Q04DX003 (ip), vehicle: Klucel (hydroxypropylcellulose) (HPC)
  T/C: 127 and 136 % of control
dose: 150.0 mg/kg/injection, schedule: Q04DX003 (ip), vehicle: Klucel (hydroxypropylcellulose) (HPC)
  T/C: 148 % of control
dose: 225.0 mg/kg/injection, schedule: Q04DX003 (ip), vehicle: Klucel (hydroxypropylcellulose) (HPC)
  T/C: 139 % of control
[15]
  survivor count: 2 of 6

## CCCCCC[P+](c1ccccc1)(c1ccccc1)c1ccccc1
[8]
  survivor count: 0 of 6
[10]
  survivor count: 0 of 6
[11]
  survivor count: 0 of 6

## CN(C)c1ccc(-c2nc3ccccn3c2N)cc1
[5]
  survivor count: 0 of 3
[6]
  survivor count: 0 of 3
[7]
  survivor count: 0 of 3
[9]
  survivor count: 0 of 3

## CN1CCN(CCSC(=O)N2c3ccccc3Sc3ccc(Cl)cc32)CC1
dose: 150.0 mg/kg/injection, schedule: Q01DX001 (ip), vehicle: saline
  survivor count: 2 of 6
dose: 300.0 mg/kg/injection, schedule: Q01DX001 (ip), vehicle: saline
  survivor count: 0 of 6

## O=C1C=CC(=O)N1c1ccc(Cc2ccc(N3C(=O)C=CC3=O)cc2)cc1
dose: 17.7 mg/kg/injection, schedule: Q01DX Z (ip), vehicle: methylcellulose (MC)
  survivor count: 6 of 6

## Cc1cc(NCCN(C(C)C)C(C)C)nc(/N=C(\N)Nc2ccc(Cl)c(Cl)c2)n1
dose: 37.5 mg/kg/injection, schedule: Q01DX001 (ip), vehicle: Klucel (hydroxypropylcellulose) (HPC)
  survivor count: 3 of 6
dose: 75.0 mg/kg/injection, schedule: Q01DX001 (ip), vehicle: Klucel (hydroxypropylcellulose) (HPC)
  survivor count: 0 of 6
dose: 150.0 mg/kg/injection, schedule: Q01DX001 (ip), vehicle: Klucel (hydroxypropylcellulose) (HPC)
  survivor count: 0 of 6
dose: 300.0 mg/kg/injection, schedule: Q01DX001 (ip), vehicle: other
  survivor count: 0 of 6

## Cc1cc(OC(=O)Nc2cccc(Cl)c2)ccc1[N+](=O)[O-]
[4]
  survivor count: 2 of 6

## CC(=O)N(C)c1ccc(NC(=S)NC(=O)c2cccc([N+](=O)[O-])c2)cc1
[13]
  T/C: 97 (2×), 101, 102 % of control
[16]
  T/C: 94, 95, 105 % of control
  survivor count: 6 of 6

## NC(N)=NCCCS(=O)(=O)Nc1ccc(Nc2c3ccccc3nc3cc([N+](=O)[O-])ccc23)cc1
dose: 0.75 mg/kg/injection, schedule: Q01DX009 (ip), vehicle: water
  T/C: 126 % of control
dose: 1.5 mg/kg/injection, schedule: Q01DX009 (ip), vehicle: water
  T/C: 133 % of control
dose: 12.5 mg/kg/injection, schedule: Q04DX003 (ip), vehicle: water
  T/C: 134 % of control
dose: 25.0 mg/kg/injection, schedule: Q04DX003 (ip), vehicle: water
  T/C: 129 % of control
dose: 50.0 mg/kg/injection, schedule: Q04DX002 (ip), vehicle: saline with Tween-80
  T/C: 135 % of control
[14]
  survivor count: 0 of 3

## Cc1ccc(S(=O)(=O)OCCN(CCO)c2cn(C(c3ccccc3)(c3ccccc3)c3ccccc3)c(=O)n(C(c3ccccc3)(c3ccccc3)c3ccccc3)c2=O)cc1
[1]
  survivor count: 4 of 4

## CNCCC(=O)C1CCC(OC)CC1 (configuration not stated)
dose: 400.0 mg/kg/injection, schedule: Q04DX002 (ip), vehicle: saline
  survivor count: 1 of 3

## O=C1CCCCC1CC1(O)C(=O)NC2CCC(Br)CC21 (configuration not stated)
dose: 100.0 mg/kg/injection, schedule: Q04DX002 (ip), vehicle: Klucel (hydroxypropylcellulose) (HPC)
  survivor count: 3 of 3

## Cc1cc(N(CCOS(C)(=O)=O)CCOS(C)(=O)=O)ccc1C=Nc1cccc(Br)c1
dose: 200.0 mg/kg/injection, schedule: Q04DX003 (ip), vehicle: Klucel (hydroxypropylcellulose) (HPC)
  survivor count: 6 of 6
[15]
  survivor count: 1 of 6

## CC(CC(C)O)=NCCN=C(C)CC(C)O.[Ni] (configuration not stated)
[12]
  survivor count: 6 of 6

## Cc1nc(Cl)c(C(N)=O)nc1C
[16]
  survivor count: 3 of 6
dose: 400.0 mg/kg/injection, schedule: Q01DX009 (ip), vehicle: saline with Tween-80
  survivor count: 4 of 6

## CC[N+](CC)(CC)CC(=O)NCc1ccco1
dose: 400.0 mg/kg/injection, schedule: Q04DX002 (ip), vehicle: carboxymethylcellulose (CMC)
  survivor count: 3 of 6
